Assay [1] has as its target T1, ESD4 (yeast two-hybrid fusion) (Arabidopsis thaliana) (UniProt Q94F30).
T1 sequence: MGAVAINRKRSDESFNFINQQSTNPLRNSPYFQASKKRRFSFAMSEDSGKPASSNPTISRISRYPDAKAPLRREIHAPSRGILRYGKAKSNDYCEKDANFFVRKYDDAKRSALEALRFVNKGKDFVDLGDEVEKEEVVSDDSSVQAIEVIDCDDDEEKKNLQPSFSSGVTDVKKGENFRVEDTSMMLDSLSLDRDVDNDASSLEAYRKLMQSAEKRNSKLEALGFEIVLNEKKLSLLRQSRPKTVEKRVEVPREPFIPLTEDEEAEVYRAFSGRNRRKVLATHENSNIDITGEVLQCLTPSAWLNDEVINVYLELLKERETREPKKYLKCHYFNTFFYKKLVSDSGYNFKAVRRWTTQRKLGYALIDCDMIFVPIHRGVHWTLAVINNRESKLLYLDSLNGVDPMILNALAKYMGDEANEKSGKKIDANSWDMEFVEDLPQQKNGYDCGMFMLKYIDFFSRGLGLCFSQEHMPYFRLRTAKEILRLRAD
Kind of assay: two-hybrid.

Amino acid sequences for entries named in this document (tags omitted).
UniProt Q6X5Y6: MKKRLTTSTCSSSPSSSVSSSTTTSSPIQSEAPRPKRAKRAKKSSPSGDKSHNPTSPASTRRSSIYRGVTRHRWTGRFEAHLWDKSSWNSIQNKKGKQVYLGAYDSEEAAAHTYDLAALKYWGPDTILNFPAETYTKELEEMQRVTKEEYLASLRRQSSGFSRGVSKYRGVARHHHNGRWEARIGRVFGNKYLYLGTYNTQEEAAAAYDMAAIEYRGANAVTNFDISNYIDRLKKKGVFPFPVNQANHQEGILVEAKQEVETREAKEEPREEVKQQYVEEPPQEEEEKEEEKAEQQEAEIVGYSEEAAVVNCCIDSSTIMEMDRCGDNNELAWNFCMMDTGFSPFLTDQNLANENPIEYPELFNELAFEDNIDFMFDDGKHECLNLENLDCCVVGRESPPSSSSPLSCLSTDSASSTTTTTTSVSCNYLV

Assay [2] concerns the target T2, ULP1a (yeast two-hybrid fusion) (Arabidopsis thaliana) (UniProt Q8GYL3).
T2 sequence: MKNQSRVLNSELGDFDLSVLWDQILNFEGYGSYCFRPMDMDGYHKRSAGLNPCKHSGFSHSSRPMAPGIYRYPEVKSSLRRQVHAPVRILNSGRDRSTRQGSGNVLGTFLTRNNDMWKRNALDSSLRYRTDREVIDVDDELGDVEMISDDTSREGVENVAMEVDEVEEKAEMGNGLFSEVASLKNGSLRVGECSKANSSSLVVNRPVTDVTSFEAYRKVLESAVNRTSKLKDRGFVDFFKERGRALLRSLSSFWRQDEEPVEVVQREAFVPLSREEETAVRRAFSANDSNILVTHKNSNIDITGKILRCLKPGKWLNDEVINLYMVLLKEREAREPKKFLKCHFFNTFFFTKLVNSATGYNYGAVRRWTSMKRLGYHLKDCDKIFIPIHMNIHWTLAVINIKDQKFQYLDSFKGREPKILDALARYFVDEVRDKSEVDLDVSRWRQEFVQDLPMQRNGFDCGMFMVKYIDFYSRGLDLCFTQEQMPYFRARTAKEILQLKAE
Nature of the assay: two-hybrid.

For assay [3], the target named is T3, ULP1b (yeast two-hybrid fusion) (Arabidopsis thaliana) (UniProt O65278).
T3 sequence: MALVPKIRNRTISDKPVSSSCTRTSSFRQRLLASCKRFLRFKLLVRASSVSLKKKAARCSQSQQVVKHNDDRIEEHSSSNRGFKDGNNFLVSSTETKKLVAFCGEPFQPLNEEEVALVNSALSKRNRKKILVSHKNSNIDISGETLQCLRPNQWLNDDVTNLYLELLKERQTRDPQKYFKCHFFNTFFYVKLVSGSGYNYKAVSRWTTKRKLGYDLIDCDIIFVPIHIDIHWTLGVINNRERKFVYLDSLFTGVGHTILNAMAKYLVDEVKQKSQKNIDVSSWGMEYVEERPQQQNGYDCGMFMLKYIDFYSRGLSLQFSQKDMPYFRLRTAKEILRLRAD
Kind of assay: two-hybrid.

For assay [4], the target named is T4, OTS1 (yeast two-hybrid fusion) (Arabidopsis thaliana) (UniProt Q2PS26).
T4 sequence: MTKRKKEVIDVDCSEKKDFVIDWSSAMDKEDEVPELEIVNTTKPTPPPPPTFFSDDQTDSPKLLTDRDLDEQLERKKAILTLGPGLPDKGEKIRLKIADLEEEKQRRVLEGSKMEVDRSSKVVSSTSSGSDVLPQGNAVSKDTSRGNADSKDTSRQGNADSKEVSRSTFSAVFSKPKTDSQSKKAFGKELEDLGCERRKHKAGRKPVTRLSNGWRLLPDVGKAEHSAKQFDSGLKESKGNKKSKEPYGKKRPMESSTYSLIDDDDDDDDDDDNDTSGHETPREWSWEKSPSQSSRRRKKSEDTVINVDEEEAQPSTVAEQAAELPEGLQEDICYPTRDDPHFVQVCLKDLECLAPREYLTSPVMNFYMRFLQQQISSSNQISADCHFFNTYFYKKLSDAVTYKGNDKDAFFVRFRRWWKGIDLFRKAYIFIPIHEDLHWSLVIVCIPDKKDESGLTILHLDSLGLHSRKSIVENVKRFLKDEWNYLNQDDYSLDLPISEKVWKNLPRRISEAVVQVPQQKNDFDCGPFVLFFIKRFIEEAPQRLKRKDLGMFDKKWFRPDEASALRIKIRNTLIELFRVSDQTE
Kind of assay: two-hybrid.

Assay [5] has as its target T5, OTS2 (yeast two-hybrid fusion) (Arabidopsis thaliana) (UniProt Q8RWN0).
T5 sequence: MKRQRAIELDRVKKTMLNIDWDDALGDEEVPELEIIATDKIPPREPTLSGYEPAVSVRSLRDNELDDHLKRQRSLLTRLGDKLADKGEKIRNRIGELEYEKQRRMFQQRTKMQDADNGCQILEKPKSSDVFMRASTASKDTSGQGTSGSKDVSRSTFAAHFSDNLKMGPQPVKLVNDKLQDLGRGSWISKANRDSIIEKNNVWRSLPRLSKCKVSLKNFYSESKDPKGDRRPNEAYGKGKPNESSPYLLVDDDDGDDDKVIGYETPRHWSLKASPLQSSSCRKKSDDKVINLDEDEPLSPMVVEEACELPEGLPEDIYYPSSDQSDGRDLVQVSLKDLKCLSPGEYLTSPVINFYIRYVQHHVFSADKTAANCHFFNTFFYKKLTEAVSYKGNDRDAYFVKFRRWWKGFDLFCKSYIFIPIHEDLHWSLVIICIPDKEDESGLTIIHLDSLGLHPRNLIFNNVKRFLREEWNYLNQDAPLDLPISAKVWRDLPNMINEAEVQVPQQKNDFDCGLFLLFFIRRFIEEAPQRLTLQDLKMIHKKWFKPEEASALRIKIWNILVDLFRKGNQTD
Nature of the assay: two-hybrid.

Assay [6] has as its target WRI1-GFP (Arabidopsis) (UniProt Q6X5Y6). Nature of the assay: co-IP.

No constants are given. Whether binding was seen depends on the method and setting. For part of these data: In cells and extracts the contact can be indirect. Some binding calls cover weakened binding; strength is not graded here. Sequences can lack the tags named with a protein.

“WRI1-AD (WRINKLED1 fused to GAL4-AD) (from UniProt Q6X5Y6 1-430)”: the binding entry in assay [1], in assay [2], in assay [3], in assay [4] and in assay [5] was “no binding” each time.

B1: BPM2-FLAG (protein, UniProt Q9M8J9 1-406)
chain: MDTIRVSKEVPGSSKSTAQSLTESTSRTETINGSHEFKISGYSLVKGMGIGKYVASDTFMVGGYSWAIYFYPDGKSPEDNSVYVSLFIALASEGADVRALFELTLVDQSGNERHKVHSHFGRTLESGPYTLKYRGSMWGYKRFFKRSLLESSDYLKDNGLLVRCCVGVVKSRTEGPRCYNIPVPVSGLGQQFGKLLESGKGADVTFEVDGETFPAHKLVLAARSAVFRAQLFGPLRSENTNCIIIEDVQAPIFKMLLHFIYWDEMPDMQDLIGTDLKWASTLVAQHLLAAADRYALERLRTICESKLCEGISINTVATTLALAEQHHCFQLKAACLKFIALPENLKAVMETDGFDYLKESCPSLLSELLEYVARLSEHSLTSSGHRKELFADGCDLNGRRVKQRLH
Take B1: in assay [6], the binding entry is “binds”.

Source of the values: article doi:10.1101/2025.08.01.668025.
